Literature values, collected in US10653173B2, “Method for masking unpleasant taste” (Analyticon Discovery GmbH, priority 2015, dated 2020).
At least one compound was matched to its structure with a doubt left.

Details: cited from earlier work

Compound: C[C@H](CC[C@@H](O[C@@H]1O[C@H](CO[C@@H]2O[C@H](CO)[C@@H](O)[C@H](O)[C@H]2O)[C@@H](O)[C@H](O)[C@H]1O[C@@H]1O[C@H](CO)[C@@H](O)[C@H](O)[C@H]1O)C(C)(C)O)[C@H]1CC[C@@]2(C)[C@@H]3CC=C4[C@@H](CC[C@H](O[C@@H]5O[C@H](CO[C@@H]6O[C@H](CO)[C@@H](O)[C@H](O)[C@H]6O)[C@@H](O)[C@H](O)[C@H]5O)C4(C)C)[C@]3(C)[C@H](O)C[C@]12C [Mogroside-V]
- Sweetness relative to sugar: 400 times sweeter than sugar
